Laboratory results published in PMC5386689.
No constants are given. Whether binding was seen depends on the method and setting. In cells and extracts the contact can be indirect. Some entries that bind do so weakly or less than the wild type.

Protein sequences, listed by entry. Tags and fused reporters are not part of them. Residues count along the entry.
UniProt P11021, residues 19-654: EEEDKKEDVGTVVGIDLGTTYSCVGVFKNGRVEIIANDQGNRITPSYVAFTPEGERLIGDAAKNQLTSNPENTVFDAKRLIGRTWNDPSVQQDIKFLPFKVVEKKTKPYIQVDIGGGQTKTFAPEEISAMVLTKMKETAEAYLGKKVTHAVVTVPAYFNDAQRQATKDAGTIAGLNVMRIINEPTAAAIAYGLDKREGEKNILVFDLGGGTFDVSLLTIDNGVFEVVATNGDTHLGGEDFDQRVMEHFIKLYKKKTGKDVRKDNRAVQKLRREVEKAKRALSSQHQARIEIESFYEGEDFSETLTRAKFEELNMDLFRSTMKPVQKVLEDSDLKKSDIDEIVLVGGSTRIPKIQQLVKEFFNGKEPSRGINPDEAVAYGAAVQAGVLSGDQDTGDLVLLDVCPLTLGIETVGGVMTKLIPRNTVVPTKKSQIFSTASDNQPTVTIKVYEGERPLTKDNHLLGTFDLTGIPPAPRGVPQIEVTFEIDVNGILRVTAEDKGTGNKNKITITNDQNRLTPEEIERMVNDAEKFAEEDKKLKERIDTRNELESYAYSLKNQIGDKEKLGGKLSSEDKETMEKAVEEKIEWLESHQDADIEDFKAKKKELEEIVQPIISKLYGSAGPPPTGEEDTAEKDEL

Molecular target: recombinant human GRP78 (rhGRP78), bait of the GST pull-down (human) (UniProt P11021)
Experiment: pull-down; GST pull-down with rhGRP78 as the bait; EGFR from SMMC7721 and PLC cells, detected in the precipitates; only the target purified

- binding: binds
Substance: epidermal cell growth factor receptor (EGFR), endogenous in SMMC7721 and PLC cells (from UniProt P00533 25-1210)
